Assay results from the supplement of paper PMC11006884.
This list holds what a sample rich in targets with a hit left over. The data scatter; read single values as rough. The entries are a selection whose mix differs from that of the whole data set.

The chains behind the UniProt entries cited, without tags or fusion partners. Where a name states a change or a piece, a line headed by the entry shows the natural chain unless it says otherwise.
UniProt Q6ZU80: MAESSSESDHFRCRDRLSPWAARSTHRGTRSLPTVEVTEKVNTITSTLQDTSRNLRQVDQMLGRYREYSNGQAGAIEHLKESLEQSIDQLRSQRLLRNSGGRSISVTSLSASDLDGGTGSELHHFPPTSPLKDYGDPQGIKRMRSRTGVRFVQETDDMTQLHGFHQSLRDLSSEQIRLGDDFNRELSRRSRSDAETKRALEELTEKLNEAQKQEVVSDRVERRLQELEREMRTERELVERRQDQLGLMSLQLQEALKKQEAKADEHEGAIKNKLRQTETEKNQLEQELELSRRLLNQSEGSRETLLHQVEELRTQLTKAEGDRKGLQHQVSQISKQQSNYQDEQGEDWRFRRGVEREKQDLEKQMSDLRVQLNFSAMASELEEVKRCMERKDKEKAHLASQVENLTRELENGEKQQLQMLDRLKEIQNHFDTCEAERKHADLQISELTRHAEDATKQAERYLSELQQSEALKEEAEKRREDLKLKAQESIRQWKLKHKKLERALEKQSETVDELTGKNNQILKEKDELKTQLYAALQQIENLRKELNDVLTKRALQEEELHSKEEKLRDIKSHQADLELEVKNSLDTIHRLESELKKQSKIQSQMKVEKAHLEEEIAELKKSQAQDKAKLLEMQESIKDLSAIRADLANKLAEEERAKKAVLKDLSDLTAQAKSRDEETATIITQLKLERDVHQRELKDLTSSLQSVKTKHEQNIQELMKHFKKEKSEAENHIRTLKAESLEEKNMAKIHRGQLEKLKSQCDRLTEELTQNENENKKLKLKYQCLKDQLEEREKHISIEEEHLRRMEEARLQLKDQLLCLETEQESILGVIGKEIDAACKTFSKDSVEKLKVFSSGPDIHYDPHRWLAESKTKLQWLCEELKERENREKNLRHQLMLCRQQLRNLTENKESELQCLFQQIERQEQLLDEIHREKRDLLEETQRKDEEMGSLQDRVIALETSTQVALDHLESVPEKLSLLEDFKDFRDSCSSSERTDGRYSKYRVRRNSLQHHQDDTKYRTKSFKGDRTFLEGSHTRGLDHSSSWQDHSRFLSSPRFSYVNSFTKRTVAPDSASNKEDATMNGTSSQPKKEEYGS
UniProt Q5SRE5: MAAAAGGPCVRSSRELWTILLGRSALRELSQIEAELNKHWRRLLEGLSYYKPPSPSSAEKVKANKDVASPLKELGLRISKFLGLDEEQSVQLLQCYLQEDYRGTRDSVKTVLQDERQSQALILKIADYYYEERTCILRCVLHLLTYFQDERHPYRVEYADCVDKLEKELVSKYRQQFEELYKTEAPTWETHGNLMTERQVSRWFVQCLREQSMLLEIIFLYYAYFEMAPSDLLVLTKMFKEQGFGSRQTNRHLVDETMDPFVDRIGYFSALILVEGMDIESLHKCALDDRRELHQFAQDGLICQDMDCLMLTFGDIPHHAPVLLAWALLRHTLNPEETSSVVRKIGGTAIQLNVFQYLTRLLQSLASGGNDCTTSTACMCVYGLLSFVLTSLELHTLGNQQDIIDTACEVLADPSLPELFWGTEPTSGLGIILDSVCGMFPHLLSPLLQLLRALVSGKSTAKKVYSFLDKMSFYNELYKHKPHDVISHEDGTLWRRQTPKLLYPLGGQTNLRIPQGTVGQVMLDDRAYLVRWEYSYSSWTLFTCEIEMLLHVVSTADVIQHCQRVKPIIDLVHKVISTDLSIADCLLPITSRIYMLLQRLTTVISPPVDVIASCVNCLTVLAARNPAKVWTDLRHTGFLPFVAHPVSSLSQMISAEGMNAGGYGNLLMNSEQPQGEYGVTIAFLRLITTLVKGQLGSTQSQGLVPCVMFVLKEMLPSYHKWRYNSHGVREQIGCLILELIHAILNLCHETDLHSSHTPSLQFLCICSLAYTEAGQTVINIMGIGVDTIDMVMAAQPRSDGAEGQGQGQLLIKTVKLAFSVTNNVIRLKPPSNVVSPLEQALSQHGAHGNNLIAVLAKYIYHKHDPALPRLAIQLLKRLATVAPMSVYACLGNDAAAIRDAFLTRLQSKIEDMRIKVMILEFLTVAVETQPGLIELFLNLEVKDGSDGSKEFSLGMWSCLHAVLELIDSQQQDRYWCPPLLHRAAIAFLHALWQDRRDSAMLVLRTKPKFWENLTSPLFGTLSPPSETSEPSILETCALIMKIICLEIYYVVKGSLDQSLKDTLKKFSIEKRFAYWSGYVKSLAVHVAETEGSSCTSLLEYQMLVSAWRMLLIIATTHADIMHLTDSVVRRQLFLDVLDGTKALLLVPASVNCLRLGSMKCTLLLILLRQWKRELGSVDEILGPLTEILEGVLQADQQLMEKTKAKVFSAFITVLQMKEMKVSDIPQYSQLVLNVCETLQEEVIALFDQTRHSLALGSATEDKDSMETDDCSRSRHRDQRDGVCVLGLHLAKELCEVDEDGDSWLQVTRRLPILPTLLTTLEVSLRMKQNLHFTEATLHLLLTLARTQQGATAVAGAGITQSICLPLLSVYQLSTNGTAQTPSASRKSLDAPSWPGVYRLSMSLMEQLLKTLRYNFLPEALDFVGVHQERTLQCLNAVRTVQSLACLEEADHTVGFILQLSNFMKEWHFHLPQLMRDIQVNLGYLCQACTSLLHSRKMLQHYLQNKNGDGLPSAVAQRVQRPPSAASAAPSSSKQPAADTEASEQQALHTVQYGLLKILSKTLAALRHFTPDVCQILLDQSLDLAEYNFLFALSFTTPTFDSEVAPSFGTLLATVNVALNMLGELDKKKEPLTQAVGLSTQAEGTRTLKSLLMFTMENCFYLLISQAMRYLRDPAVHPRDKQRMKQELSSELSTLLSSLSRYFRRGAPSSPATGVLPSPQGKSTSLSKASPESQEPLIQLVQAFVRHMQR
UniProt Q5HYK3: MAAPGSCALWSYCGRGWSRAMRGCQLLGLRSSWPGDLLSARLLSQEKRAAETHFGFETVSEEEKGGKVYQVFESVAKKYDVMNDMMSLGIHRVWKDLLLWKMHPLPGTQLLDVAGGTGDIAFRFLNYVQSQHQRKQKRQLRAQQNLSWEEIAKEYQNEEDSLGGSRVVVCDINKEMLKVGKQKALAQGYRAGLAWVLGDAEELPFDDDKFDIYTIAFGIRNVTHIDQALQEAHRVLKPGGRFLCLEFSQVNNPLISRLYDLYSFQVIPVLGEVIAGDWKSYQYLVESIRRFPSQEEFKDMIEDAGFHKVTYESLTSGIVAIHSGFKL
UniProt Q6IQ21: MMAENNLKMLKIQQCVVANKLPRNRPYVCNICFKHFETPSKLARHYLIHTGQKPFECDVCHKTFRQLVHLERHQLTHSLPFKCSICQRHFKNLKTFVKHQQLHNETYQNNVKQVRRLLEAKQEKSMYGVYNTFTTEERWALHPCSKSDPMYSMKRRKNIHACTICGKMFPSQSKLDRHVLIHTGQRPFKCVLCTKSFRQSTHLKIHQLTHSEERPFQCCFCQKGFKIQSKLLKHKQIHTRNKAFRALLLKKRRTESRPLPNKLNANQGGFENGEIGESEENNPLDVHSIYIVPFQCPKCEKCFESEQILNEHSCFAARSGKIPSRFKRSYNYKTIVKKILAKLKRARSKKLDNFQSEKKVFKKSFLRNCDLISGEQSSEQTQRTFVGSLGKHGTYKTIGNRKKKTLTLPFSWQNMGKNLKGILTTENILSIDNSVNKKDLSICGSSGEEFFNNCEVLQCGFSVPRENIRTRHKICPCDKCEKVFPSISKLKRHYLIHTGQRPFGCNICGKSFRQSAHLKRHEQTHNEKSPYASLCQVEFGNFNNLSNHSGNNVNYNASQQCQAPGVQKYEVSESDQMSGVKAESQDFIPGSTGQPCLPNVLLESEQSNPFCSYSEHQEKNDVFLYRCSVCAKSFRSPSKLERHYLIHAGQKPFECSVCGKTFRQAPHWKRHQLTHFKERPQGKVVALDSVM
UniProt Q6P4I2: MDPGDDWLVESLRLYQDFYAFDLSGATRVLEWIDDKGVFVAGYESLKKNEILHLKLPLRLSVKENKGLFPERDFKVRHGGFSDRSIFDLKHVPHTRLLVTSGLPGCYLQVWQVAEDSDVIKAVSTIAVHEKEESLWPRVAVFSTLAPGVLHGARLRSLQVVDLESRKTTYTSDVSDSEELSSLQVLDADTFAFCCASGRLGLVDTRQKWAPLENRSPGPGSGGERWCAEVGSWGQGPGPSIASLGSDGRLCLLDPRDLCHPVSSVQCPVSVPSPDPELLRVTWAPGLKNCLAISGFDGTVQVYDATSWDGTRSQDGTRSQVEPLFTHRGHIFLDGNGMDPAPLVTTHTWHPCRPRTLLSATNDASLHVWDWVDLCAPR
UniProt Q5SW79: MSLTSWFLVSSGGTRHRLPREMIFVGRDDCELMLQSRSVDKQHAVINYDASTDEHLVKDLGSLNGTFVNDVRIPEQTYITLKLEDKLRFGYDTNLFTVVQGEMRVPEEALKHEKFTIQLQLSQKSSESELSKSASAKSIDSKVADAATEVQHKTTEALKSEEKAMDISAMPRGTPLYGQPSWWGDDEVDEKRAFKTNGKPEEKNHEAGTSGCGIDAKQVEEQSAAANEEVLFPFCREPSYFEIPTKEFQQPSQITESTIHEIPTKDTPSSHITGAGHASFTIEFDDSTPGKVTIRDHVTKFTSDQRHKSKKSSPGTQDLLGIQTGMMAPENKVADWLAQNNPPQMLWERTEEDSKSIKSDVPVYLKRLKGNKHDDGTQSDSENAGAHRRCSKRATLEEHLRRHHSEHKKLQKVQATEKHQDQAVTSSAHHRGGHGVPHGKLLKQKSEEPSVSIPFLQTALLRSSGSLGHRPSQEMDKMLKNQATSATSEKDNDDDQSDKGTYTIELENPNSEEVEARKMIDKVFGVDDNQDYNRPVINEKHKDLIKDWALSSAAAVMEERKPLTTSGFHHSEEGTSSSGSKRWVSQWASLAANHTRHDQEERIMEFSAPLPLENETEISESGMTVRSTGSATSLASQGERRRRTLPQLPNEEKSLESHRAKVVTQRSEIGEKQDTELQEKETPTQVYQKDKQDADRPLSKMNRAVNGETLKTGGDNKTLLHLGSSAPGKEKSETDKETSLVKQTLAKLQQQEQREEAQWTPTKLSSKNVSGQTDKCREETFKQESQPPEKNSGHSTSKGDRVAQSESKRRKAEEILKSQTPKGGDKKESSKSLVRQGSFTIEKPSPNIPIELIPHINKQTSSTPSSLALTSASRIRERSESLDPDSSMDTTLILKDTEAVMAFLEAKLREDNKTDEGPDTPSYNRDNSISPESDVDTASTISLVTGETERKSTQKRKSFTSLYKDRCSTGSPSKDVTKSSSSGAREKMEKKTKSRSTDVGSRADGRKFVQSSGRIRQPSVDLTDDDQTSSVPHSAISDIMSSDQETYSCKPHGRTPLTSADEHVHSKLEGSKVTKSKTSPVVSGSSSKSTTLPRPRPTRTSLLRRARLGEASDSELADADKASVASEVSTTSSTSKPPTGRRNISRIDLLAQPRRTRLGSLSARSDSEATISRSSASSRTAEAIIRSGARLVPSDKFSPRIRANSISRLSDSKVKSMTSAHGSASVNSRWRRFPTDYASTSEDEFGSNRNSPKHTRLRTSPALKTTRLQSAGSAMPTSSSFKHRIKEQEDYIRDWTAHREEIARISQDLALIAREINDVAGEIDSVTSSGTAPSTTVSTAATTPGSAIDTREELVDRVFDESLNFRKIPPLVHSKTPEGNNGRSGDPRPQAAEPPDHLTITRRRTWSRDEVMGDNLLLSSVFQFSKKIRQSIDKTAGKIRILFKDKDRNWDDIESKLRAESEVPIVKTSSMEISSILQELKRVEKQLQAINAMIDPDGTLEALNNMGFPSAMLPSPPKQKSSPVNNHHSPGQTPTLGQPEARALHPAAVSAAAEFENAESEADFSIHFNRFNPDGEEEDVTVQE
UniProt Q5T9A4: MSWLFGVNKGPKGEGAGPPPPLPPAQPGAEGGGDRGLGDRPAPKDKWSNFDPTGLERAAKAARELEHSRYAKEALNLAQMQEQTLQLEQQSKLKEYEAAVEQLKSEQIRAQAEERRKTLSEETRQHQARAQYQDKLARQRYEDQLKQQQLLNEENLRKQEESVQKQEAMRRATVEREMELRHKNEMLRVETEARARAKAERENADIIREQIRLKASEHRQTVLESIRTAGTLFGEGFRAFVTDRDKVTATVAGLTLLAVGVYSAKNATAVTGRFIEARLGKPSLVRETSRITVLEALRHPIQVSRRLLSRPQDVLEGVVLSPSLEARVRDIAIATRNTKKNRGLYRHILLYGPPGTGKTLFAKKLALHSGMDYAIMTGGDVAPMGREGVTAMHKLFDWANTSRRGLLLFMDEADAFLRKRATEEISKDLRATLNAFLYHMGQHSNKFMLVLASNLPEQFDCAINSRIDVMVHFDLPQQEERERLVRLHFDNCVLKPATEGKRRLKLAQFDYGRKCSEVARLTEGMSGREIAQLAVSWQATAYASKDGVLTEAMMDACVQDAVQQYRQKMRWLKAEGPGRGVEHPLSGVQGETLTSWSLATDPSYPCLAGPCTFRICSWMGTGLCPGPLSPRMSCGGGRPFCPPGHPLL

Each target was assayed with COC(=O)/C=C/c1ccccc1 [methyl cinnamate] (assay: log2 ratio of iodoacetamide-alkyne labeling of the cysteine site, DMSO over compound (competition); higher = stronger covalent engagement of the cysteine by the compound, active = 1 or more). Details: 500 µM; treatment time 1 h; system: HEK293T cell lysate.
Outline: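 The log2 competition ratio per cysteine is defined as mean reporter intensity in control channels over mean reporter intensity in compound channels. Lysate from HEK293T cells (2 mg/mL) received electrophile (500 µM) or vehicle for 1 h at ambient temperature, followed by iodoacetamide alkyne for 1 h. Samples were clicked to sCIP-TMT reagents, pooled, trypsin-digested overnight at 37 °C, streptavidin-enriched, acid-eluted and run on Orbitrap Eclipse LC-MS/MS with FAIMS, with quantification in FragPipe. Three replicates with duplicate channels were used, and any cysteine quantified in only one replicate was excluded.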

log2 ratio of iodoacetamide-alkyne labeling, inactive:
MBOAT2 C505 (UniProt Q6ZWT7) 0.345, ATAD2 C463 (UniProt Q6PL18) 0.0785, MTHFD1L C779 (UniProt Q6UB35) 0.247, CEP128 C915 (UniProt Q6ZU80) 0.362, UniProt Q63HN8_C3008 0.304, NUP188 C95 (UniProt Q5SRE5) 0.0875, COQ5 C244 (UniProt Q5HYK3) 0.143, ZNF770 C369 (UniProt Q6IQ21) 0.114, C19orf54 C271 (UniProt Q5BKX5) -0.371, UniProt Q6ZNW5_C64 0.0814, NIPBL C661 (UniProt Q6KC79) 0.0603, DHRS13 C268 (UniProt Q6UX07) 0.0345, UniProt Q6PIY7_C167 -0.0863, PAXIP1 C169 (UniProt Q6ZW49) 0.202, FAAP20 C70 (UniProt Q6NZ36) 0.0933, MTHFD1L C291 (UniProt Q6UB35) 0.0528, WDR73 C106 (UniProt Q6P4I2) -0.11, LARP1 C1054 (UniProt Q6PKG0) 0.484, FBXL19 C142 (UniProt Q6PCT2) -0.0295, UniProt Q5W0B1_C321 0.424, FIGNL1 C200 (UniProt Q6PIW4) 0.276, LIN9 C435 (UniProt Q5TKA1) 0.115, UBAP2 C208 (UniProt Q5T6F2) -0.0507, UniProt Q5T8A7_C245 -0.0746, TBC1D9B C1079 (UniProt Q66K14) 0.151, SHQ1 C572 (UniProt Q6PI26) 0.264, CNNM4 C736 (UniProt Q6P4Q7) 0.209, RNF123 C1180 (UniProt Q5XPI4) 0.232, CEP170 C967 (UniProt Q5SW79) 0.367, NUP188 C9 (UniProt Q5SRE5) 0.283, ATAD3B C616 (UniProt Q5T9A4) -0.0264, RAB11FIP1 C1192 (UniProt Q6WKZ4) -0.0498, TET2 C332 (UniProt Q6N021) 0.368, NIPBL C1876 (UniProt Q6KC79) -0.0771, PITRM1 C313 (UniProt Q5JRX3) 0.317, FIP1L1 C216 (UniProt Q6UN15) 0.096, HSDL2 C218 (UniProt Q6YN16) 0.0777
